The list shows a part of the results.
How the values were obtained:
Assay in all cases: log2 fold change, soluble protein after heating vs DMSO (PISA); higher = thermal stabilisation; K562 lysate, 10 uM; active = over 0.2 and 3.5 SD of the protein, either way, in both replicates (recomputed)
[1] = compound: NCC(=O)Nc1ccc(-n2nc(C(F)(F)F)cc2-c2ccc3c(ccc4ccccc43)c2)cc1
Procedure, shortened: (§1)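 Values give the log-two fold change in thermal stability against solvent controls, from duplicates. Crude K562 extract at 1 mg/mL protein, made by dounce homogenisation in PBS pH 7.4 with 1 mM MgCl2, was treated with 10 μM compound for 30 min. After 3 min heating across 48°C-58°C, aliquots were pooled, adjusted to 0.5% NP-40 at 4°C and centrifuged at 21,000xg for 90 min. The supernatant was measured by TMTpro 16plex LC-MS/MS with channel sums equalised.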

Amino acid sequences for entries named in this document (tags omitted). A change or cut given only in a name is not applied to a line headed by its entry.
UniProt O14981: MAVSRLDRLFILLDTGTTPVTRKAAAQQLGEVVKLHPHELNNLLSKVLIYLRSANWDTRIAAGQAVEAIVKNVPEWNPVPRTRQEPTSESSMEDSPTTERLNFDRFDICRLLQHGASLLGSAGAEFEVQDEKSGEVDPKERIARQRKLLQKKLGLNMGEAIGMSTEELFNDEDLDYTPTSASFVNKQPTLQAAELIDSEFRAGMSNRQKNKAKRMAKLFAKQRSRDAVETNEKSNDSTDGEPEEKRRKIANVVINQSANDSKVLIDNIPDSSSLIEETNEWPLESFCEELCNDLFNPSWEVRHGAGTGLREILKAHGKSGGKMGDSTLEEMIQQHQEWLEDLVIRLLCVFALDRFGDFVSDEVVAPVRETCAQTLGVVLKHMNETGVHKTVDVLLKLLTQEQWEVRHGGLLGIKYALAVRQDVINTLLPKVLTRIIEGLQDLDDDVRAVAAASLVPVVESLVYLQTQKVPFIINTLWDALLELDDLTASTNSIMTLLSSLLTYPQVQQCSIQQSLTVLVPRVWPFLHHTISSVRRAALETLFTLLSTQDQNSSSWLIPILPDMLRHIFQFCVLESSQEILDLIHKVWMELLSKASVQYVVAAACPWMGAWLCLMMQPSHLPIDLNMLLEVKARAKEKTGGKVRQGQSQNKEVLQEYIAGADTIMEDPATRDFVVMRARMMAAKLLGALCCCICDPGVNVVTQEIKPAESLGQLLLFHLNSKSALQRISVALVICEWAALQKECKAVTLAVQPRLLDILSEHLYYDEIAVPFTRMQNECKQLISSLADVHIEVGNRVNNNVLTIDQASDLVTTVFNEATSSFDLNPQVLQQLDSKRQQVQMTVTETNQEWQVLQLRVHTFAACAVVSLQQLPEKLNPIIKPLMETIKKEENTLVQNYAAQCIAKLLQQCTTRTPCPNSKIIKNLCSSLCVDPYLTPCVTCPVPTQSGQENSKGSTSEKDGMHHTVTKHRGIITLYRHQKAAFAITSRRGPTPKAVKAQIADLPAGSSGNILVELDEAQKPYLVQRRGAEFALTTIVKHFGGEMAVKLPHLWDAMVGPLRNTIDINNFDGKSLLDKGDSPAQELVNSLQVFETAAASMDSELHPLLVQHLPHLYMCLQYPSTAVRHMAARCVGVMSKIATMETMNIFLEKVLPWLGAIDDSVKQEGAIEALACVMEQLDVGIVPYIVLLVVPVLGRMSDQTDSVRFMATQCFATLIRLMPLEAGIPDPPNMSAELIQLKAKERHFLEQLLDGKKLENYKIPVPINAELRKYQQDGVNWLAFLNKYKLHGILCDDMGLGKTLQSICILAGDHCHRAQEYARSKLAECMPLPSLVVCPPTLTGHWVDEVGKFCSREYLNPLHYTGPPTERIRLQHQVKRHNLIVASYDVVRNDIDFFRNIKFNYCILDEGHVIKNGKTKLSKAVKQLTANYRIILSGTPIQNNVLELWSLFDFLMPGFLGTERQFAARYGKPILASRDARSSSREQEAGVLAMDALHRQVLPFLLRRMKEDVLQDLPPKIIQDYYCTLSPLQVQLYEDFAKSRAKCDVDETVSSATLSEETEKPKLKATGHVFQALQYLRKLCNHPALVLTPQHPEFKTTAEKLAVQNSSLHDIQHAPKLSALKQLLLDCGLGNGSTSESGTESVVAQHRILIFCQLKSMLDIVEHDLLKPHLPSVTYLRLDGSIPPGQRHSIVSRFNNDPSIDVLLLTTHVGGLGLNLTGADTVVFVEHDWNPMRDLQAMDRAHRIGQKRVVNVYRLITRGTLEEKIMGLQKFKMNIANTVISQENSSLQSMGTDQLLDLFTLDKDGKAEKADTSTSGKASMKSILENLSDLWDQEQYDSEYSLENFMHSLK
UniProt Q9P287, whole entry, looked up: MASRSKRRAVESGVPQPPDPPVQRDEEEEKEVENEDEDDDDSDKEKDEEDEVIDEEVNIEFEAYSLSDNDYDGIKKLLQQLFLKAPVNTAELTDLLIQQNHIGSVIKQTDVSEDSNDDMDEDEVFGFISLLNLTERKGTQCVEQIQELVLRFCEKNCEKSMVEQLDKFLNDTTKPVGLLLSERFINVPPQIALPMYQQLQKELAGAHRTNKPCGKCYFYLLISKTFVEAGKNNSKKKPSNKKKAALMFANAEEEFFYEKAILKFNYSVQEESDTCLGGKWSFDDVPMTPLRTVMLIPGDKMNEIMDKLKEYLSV
UniProt Q12983, whole entry, looked up: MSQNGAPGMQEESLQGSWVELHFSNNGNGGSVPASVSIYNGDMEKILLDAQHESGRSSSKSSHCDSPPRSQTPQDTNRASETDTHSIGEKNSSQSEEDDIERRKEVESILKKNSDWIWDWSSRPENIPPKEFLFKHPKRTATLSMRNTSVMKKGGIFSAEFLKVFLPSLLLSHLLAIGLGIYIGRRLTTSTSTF
UniProt Q76KP1: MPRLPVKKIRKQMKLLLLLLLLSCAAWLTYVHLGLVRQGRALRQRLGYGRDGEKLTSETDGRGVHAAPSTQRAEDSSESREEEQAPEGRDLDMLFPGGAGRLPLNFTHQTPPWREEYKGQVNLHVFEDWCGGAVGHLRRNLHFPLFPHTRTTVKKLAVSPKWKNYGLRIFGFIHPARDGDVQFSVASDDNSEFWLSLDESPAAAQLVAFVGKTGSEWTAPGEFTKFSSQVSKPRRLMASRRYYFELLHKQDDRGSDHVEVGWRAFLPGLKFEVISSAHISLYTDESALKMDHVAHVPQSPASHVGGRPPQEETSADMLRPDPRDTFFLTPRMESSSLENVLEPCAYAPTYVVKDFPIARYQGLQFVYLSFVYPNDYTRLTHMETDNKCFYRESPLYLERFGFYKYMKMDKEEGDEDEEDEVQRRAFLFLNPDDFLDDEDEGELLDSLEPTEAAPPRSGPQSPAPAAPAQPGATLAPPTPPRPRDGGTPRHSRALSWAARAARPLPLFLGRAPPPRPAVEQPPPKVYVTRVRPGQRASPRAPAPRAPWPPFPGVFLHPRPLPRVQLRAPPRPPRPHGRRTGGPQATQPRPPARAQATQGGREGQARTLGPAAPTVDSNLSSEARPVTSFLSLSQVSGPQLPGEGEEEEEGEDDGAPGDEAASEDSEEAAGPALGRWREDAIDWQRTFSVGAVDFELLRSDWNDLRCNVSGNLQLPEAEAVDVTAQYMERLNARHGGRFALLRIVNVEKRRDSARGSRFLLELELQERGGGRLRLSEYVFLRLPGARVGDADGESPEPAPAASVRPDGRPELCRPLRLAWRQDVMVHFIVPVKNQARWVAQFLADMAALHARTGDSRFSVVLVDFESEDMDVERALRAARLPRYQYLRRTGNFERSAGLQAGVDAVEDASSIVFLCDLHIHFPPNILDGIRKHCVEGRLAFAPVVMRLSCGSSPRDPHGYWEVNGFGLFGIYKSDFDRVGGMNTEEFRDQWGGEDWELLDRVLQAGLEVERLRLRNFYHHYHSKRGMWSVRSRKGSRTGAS
UniProt Q4VC05, whole entry, looked up: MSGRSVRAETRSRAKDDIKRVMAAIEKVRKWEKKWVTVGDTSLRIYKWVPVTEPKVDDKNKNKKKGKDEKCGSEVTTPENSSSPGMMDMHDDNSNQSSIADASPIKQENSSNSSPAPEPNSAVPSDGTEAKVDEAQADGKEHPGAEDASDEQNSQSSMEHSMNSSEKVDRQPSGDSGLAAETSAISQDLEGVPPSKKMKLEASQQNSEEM
UniProt Q9H8M2, whole entry, looked up: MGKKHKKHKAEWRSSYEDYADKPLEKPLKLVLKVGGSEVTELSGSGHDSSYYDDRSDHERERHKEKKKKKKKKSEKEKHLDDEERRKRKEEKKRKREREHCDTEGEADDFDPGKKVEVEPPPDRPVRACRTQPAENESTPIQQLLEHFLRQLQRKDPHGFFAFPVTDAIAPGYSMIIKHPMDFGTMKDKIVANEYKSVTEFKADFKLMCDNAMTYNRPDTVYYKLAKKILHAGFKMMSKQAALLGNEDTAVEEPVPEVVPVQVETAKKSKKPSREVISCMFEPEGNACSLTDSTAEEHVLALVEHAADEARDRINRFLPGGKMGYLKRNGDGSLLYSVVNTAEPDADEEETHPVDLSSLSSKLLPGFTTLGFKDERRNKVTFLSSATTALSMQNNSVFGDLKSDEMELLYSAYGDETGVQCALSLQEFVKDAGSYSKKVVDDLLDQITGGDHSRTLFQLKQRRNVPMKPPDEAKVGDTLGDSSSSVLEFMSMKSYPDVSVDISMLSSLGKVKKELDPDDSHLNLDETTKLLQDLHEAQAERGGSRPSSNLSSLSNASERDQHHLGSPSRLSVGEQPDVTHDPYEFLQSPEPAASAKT
UniProt O75363: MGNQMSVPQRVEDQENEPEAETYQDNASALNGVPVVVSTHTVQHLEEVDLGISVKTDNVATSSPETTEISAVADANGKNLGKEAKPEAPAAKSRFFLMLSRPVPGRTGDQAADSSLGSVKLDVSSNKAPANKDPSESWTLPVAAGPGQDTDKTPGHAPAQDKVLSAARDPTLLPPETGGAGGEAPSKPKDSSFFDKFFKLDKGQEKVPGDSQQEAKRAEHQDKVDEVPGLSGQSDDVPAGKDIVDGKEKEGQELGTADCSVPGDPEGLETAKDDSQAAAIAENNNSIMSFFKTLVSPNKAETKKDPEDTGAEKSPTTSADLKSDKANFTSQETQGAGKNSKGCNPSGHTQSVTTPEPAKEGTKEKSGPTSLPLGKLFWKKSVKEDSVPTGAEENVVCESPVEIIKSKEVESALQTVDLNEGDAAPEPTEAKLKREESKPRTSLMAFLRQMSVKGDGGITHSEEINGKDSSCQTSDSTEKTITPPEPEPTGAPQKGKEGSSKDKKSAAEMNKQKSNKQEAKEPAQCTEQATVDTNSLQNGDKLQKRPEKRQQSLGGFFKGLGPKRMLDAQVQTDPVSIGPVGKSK
UniProt Q8TBE0: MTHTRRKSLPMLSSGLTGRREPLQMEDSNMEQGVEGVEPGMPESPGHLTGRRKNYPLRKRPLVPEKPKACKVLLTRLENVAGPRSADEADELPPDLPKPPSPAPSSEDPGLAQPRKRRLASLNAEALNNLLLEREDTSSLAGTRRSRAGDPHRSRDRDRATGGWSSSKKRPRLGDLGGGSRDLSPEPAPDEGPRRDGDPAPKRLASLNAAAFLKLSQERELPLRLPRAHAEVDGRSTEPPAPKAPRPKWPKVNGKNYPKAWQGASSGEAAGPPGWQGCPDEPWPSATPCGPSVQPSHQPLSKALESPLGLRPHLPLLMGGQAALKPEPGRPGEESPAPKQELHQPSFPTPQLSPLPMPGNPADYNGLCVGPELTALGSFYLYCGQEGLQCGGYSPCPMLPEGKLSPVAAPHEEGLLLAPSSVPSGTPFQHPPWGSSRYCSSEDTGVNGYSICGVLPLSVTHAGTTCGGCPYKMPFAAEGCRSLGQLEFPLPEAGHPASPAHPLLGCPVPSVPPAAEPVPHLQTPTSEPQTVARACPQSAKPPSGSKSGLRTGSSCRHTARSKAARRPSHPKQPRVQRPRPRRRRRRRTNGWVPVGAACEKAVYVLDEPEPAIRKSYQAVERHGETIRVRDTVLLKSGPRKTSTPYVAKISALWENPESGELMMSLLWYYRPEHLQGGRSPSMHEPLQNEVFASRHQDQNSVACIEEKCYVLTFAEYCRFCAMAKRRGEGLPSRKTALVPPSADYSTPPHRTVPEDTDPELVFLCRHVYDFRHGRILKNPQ
UniProt Q8N9N5: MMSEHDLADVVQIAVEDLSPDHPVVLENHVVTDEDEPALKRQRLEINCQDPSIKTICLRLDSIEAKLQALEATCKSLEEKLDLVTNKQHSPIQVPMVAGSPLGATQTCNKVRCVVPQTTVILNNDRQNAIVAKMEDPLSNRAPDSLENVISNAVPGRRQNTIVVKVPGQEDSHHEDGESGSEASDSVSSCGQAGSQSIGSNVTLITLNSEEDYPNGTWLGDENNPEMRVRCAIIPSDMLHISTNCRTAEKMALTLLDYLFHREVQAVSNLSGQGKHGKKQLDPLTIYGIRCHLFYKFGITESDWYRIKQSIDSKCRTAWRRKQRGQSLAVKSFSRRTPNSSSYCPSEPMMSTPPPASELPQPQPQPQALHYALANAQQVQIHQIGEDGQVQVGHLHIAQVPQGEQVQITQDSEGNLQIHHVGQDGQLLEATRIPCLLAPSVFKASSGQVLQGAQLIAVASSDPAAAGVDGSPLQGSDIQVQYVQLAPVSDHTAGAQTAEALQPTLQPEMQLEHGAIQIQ
UniProt Q9BSF8: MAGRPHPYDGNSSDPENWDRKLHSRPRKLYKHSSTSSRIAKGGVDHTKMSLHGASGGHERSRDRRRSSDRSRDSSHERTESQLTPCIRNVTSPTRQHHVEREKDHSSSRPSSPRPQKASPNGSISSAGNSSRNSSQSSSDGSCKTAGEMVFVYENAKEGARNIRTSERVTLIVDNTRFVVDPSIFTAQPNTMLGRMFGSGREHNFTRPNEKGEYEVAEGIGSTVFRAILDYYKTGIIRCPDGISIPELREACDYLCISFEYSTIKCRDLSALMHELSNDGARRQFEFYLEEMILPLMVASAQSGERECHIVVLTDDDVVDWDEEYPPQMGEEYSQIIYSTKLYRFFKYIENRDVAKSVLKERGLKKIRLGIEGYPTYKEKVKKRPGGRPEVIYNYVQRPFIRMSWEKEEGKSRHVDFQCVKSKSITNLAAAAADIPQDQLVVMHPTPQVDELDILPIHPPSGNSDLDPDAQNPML

vorinostat = compound: O=C(CCCCCCC(=O)Nc1ccccc1)NO [vorinostat]
Procedure, shortened: as §1

silmitasertib = compound: O=C(O)c1ccc2c(c1)nc(Nc1cccc(Cl)c1)c1ccncc12 [silmitasertib]
Procedure, shortened: as §1

[2] = compound: O=C1NC(=O)C(c2cnc3ccccn23)=C1c1cn2c3c(cc(F)cc13)CN(C(=O)N1CCCCC1)CC2
Procedure, shortened: as §1

entospletinib = compound: c1cn2cc(-c3ccc4cn[nH]c4c3)nc(Nc3ccc(N4CCOCC4)cc3)c2n1 [entospletinib]
Procedure, shortened: as §1

## BTAF1 (UniProt O14981)
[1]
  log2 fold change: inactive: 0.01
vorinostat
  log2 fold change: active: -0.45
silmitasertib
  log2 fold change: inactive: 0.003
[2]
  log2 fold change: inactive: -0.008
entospletinib
  log2 fold change: inactive: -0.031

## BRMS1L (UniProt Q5PSV4)
[1]
  log2 fold change: inactive: -0.001
entospletinib
  log2 fold change: inactive: -0.102

## BRCC3 (UniProt P46736)
[1]
  log2 fold change: inactive: -0.033
vorinostat
  log2 fold change: inactive: 0.081
silmitasertib
  log2 fold change: inactive: 0.01
[2]
  log2 fold change: inactive: 0.044
entospletinib
  log2 fold change: inactive: 0.019

## BCAS2 (UniProt O75934)
[1]
  log2 fold change: inactive: -0.004
vorinostat
  log2 fold change: inactive: -0.056
silmitasertib
  log2 fold change: inactive: 0.007
[2]
  log2 fold change: inactive: 0.028
entospletinib
  log2 fold change: inactive: -0.127

## BPTF (UniProt F5GXF5)
vorinostat
  log2 fold change: inactive: 0.121
silmitasertib
  log2 fold change: inactive: -0.075

## BTBD1 (UniProt Q9H0C5)
[1]
  log2 fold change: inactive: -0.037
vorinostat
  log2 fold change: inactive: -0.291
silmitasertib
  log2 fold change: inactive: 0.131
entospletinib
  log2 fold change: inactive: -0.122

## BAP18 isoform 3 (UniProt Q8IXM2)
[1]
  log2 fold change: inactive: -0.04
vorinostat
  log2 fold change: inactive: -0.137
silmitasertib
  log2 fold change: inactive: -0.279
entospletinib
  log2 fold change: inactive: -0.09

## BAG6 (UniProt F6WML8)
[1]
  log2 fold change: inactive: -0.01
vorinostat
  log2 fold change: inactive: 0.183
silmitasertib
  log2 fold change: inactive: 0.008
entospletinib
  log2 fold change: inactive: -0.024

## BCCIP isoform 2 (UniProt Q9P287)
[1]
  log2 fold change: inactive: -0.035
vorinostat
  log2 fold change: inactive: -0.026
silmitasertib
  log2 fold change: inactive: 0.011
[2]
  log2 fold change: inactive: -0.03
entospletinib
  log2 fold change: inactive: 0.025

## BAG5 isoform 2 (UniProt Q9UL15)
[1]
  log2 fold change: inactive: 0.028
vorinostat
  log2 fold change: inactive: -0.159
silmitasertib
  log2 fold change: inactive: 0.016
[2]
  log2 fold change: inactive: 0.005
entospletinib
  log2 fold change: inactive: -0.007

## BTF3 (UniProt P20290)
[1]
  log2 fold change: inactive: 0.004
vorinostat
  log2 fold change: inactive: 0.12
silmitasertib
  log2 fold change: inactive: -0.01
[2]
  log2 fold change: inactive: 0.025
entospletinib
  log2 fold change: inactive: 0.035

## BBX (UniProt Q8WY36)
vorinostat
  log2 fold change: inactive: -0.257
silmitasertib
  log2 fold change: inactive: 0.241
[2]
  log2 fold change: inactive: 0.046
entospletinib
  log2 fold change: inactive: 0

## BNIP3 (UniProt Q12983)
vorinostat
  log2 fold change: inactive: 0.066
silmitasertib
  log2 fold change: inactive: -0.08
[2]
  log2 fold change: inactive: -0.048
entospletinib
  log2 fold change: inactive: -0.031

## BNIP3L (UniProt O60238)
[2]
  log2 fold change: inactive: -0.041
entospletinib
  log2 fold change: inactive: -0.094

## BSCL2 isoform 4 (UniProt Q96G97)
vorinostat
  log2 fold change: inactive: 0.01
silmitasertib
  log2 fold change: inactive: -0.12
[2]
  log2 fold change: inactive: 0.056

## BIN3 (UniProt Q9NQY0)
vorinostat
  log2 fold change: inactive: -0.179
silmitasertib
  log2 fold change: inactive: 0.043
[2]
  log2 fold change: inactive: 0

## B4GALNT4 (UniProt Q76KP1)
[2]
  log2 fold change: inactive: -0.073

## BCL7A (UniProt Q4VC05)
[2]
  log2 fold change: inactive: 0.082

## BDP1 (UniProt A6H8Y1)
[2]
  log2 fold change: inactive: -0.055
entospletinib
  log2 fold change: inactive: -0.133

## BRD9 (UniProt Q9H8M2)
vorinostat
  log2 fold change: inactive: 0.026
silmitasertib
  log2 fold change: inactive: 0.01
entospletinib
  log2 fold change: inactive: -0.003

## BCAS1 isoform 2 (UniProt O75363)
[2]
  log2 fold change: inactive: 0.044
entospletinib
  log2 fold change: inactive: -0.092

## BAZ2A (UniProt Q9UIF9)
vorinostat
  log2 fold change: inactive: -0.047
silmitasertib
  log2 fold change: inactive: 0.119
[2]
  log2 fold change: inactive: -0.03
entospletinib
  log2 fold change: inactive: -0.099

## BPIFA2 (UniProt Q96DR5)
vorinostat
  log2 fold change: inactive: 0.129
silmitasertib
  log2 fold change: inactive: -0.067
entospletinib
  log2 fold change: inactive: -0.234

## BTBD2 (UniProt Q9BX70)
vorinostat
  log2 fold change: inactive: 0.003
silmitasertib
  log2 fold change: inactive: -0.199
[2]
  log2 fold change: inactive: -0.05
entospletinib
  log2 fold change: inactive: -0.038

## BTG3 isoform 2 (UniProt Q14201)
vorinostat
  log2 fold change: inactive: -0.731
silmitasertib
  log2 fold change: inactive: -0.149
entospletinib
  log2 fold change: inactive: 0.002

## BAHD1 (UniProt Q8TBE0)
[2]
  log2 fold change: inactive: 0

## BANP isoform 7 (UniProt Q8N9N5)
vorinostat
  log2 fold change: inactive: -0.013
silmitasertib
  log2 fold change: inactive: -0.072
entospletinib
  log2 fold change: inactive: -0.098

## BTG1 (UniProt P62324)
[2]
  log2 fold change: inactive: 0.028

## BICRAL (UniProt Q6AI39)
entospletinib
  log2 fold change: inactive: 0.166

## BTBD10 isoform 2 (UniProt Q9BSF8)
[2]
  log2 fold change: inactive: 0.002

## BCL7C (UniProt Q8WUZ0)
vorinostat
  log2 fold change: inactive: 0.061
silmitasertib
  log2 fold change: inactive: 0.081
[2]
  log2 fold change: inactive: 0.036
entospletinib
  log2 fold change: inactive: -0.506

## BRWD1 (UniProt Q9NSI6)
[2]
  log2 fold change: inactive: 0.147

## BRD7 isoform 2 (UniProt Q9NPI1)
vorinostat
  log2 fold change: inactive: 0.018
silmitasertib
  log2 fold change: inactive: 0.034
[2]
  log2 fold change: inactive: 0.104

## BOD1 (UniProt Q96IK1)
[2]
  log2 fold change: inactive: -0.018

## BPIFB1 (UniProt Q8TDL5)
entospletinib
  log2 fold change: inactive: -0.348

— the supplement of paper PMC10849652
